This passage reports binding results from article PMC6802665.

By UniProt entry, the sequences of proteins in these tests, tags left out.
UniProt P14602: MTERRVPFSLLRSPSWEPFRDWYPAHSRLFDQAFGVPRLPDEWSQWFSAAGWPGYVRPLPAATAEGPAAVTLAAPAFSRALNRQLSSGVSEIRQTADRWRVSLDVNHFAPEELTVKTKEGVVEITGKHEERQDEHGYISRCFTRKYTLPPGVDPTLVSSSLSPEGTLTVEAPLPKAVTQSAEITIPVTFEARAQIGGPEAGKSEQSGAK

These are yes or no findings as the source states them, for the method shown. Binding seen in cells or lysates may run through a third protein.

The target of the assay is heat shock protein 25 (HSP25), mouse (mouse) (UniProt P14602). The experiment in a line: co-IP.

B1: ETS1, mouse (protein, UniProt P27577 1-440)
chain: MKAAVDLKPTLTIIKTEKVDLELFPSPDMECADVPLLTPSSKEMMSQALKATFSGFTKEQQRLGIPKDPRQWTETHVRDWVMWAVNEFSLKGVDFQKFCMSGAALCALGKECFLELAPDFVGDILWEHLEILQKEDVKPYQVNGANPTYPESCYTSDYFISYGIEHAQCVPPSEFSEPSFITESYQTLHPISSEELLSLKYENDYPSVILQDPLQTDTLQTDYFAIKQEVLTPDNMCLGRASRGKLGGQDSFESVESYDSCDRLTQSWSSQSSFNSLQRVPSYDSFDYEDYPAALPNHKPKGTFKDYVRDRADLNKDKPVIPAAALAGYTGSGPIQLWQFLLELLTDKSCQSFISWTGDGWEFKLSDPDEVARRWGKRKNKPKMNYEKLSRGLRYYYDKNIIHKTAGKRYVYRFVCDLQSLLGYTPEELHAMLDVKPDAD
As to B1, the binding entry is “no binding”.
